Article doi:10.1101/280214
No constants are given. Whether binding was seen depends on the method and setting. Binding seen in cells or lysates may run through a third protein. Some entries that bind do so weakly or less than the wild type. Sequences can lack the tags named with a protein.

Legend:
GFP::MSH-5 (C. elegans) = biological target: T1, GFP::MSH-5 (C. elegans) (UniProt Q19272); assay: co-IP
T1 sequence: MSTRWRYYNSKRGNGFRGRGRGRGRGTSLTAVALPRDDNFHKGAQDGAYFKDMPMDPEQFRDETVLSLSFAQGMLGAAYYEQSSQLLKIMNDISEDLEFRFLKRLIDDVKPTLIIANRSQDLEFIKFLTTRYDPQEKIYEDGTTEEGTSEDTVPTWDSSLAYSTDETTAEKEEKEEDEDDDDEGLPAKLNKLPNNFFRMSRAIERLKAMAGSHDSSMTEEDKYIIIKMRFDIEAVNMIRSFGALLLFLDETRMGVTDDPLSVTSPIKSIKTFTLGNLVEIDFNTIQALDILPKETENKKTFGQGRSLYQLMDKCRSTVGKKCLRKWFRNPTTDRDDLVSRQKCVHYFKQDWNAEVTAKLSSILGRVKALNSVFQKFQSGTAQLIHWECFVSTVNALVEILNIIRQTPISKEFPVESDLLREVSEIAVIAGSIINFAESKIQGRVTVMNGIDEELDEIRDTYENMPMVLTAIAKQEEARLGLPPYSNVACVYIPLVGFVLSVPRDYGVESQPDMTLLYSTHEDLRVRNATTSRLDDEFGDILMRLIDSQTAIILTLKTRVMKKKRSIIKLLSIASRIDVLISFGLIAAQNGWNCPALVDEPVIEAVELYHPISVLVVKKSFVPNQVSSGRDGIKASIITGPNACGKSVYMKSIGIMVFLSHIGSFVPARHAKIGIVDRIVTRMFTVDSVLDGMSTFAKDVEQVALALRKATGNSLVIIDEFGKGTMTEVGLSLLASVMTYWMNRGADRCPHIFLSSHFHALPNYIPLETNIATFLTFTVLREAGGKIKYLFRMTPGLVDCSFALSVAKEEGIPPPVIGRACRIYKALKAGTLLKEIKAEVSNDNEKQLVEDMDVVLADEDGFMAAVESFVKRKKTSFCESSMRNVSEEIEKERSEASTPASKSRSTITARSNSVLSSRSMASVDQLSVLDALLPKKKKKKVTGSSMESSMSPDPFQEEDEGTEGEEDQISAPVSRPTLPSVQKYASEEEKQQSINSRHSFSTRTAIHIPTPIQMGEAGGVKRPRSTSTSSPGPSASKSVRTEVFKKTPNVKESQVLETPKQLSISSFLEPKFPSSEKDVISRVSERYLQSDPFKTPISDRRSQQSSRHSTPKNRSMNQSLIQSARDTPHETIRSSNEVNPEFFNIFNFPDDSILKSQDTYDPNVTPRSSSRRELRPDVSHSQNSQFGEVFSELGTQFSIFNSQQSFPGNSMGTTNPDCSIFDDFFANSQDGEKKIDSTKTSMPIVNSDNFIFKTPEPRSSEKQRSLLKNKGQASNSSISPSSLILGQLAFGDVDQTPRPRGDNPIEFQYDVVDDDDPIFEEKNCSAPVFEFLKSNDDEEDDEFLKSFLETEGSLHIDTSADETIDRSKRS

GFP::SYP-3 (C. elegans) = biological target: T2, GFP::SYP-3 (C. elegans) (UniProt O62238); assay: co-IP
T2 sequence: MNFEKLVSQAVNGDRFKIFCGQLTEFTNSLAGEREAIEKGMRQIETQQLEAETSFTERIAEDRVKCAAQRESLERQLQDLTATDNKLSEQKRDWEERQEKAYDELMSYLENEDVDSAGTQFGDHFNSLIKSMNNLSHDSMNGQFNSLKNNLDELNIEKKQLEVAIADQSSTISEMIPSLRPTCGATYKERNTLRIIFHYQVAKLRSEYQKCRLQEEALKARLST

B1: BRC-1::HA (protein, UniProt B6VQ60 1-609)
chain: MADVALRITETVARLQKELKCGICCSTYKDPILSTCFHIFCRSCINACFERKRKVQCPICRSVLDKRSCRDTYQITMAVQNYLKLSEAFKKDIENMNTFKSLPPEKMFMESQMPLDITIIPENDGKRCAPDFAIPFLPVRRKRPSRPQPPSAFAEEPAEPVEPPEPATKQPVELQSRVFPLEKLKKDVETSTETYKISREELKNVDIEEYINTLRENSTEIDEIDALFQLMPTMRQFLRNNINQLMEKFHVAPPKKSEKPANRRVSFASSQDLENIKIMTASESLETPPEPIQKLAQKPEVFKSTQNLIDLNLNTAVKKPVVVASDDDEVVEDSEGELQIDEDDLANVTCATSSTTLDADRTPKAIQDDEDRIDDELSQVPKTIVCSRIHNDADEVELLSDFYHKFLSNACRFAEDVNEHTTHLVMMNSEGRSISQKSTAYLYAIARKCVIVGRQWLVDCITTGLLLSEADYTITSCSSTIPVKIPPSIGSEMGWLRSRNDEHGKLFAGRRFMILRKFTMNPYFDYKQLIELVQQCGGEILSCYENLSPEKLYIIFSKHSKAIEESKNIENLYKCDVVTMEWVLDSISEYLILPTQPYKAVDSIGCLQD
- binding (GFP::MSH-5 (C. elegans)): binds
- binding (GFP::SYP-3 (C. elegans)): binds
